Measurements from publication PMC5333127, “RD26 mediates crosstalk between drought and brassinosteroid signalling pathways” (Nature Communications, 2017).
These are yes or no findings as the source states them, for the method shown. In cells and extracts the contact can be indirect. Some binding calls cover weakened binding; strength is not graded here. For part of these data: Sequences can lack the tags named with a protein.

Sequences of proteins named here, by UniProt entry; tags and fusion partners are left off.
UniProt Q9LN63: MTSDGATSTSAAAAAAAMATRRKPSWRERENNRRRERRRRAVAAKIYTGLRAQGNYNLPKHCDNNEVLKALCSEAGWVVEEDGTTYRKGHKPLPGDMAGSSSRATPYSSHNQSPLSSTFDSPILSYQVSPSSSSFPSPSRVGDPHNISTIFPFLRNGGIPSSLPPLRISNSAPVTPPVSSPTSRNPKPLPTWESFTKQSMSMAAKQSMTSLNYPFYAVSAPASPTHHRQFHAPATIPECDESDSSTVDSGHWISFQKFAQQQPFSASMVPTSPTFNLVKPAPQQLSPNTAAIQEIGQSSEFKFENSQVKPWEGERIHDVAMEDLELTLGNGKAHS

Tests used:
CLuc-BES1 (Arabidopsis) = CLuc-BES1 (Arabidopsis) (UniProt Q9LN63); experiment: split reporter; split luciferase complementation; RD26-NLuc and CLuc-BES1 co-expressed in tobacco leaves via Agrobacterium; Luc activity measured in protein extracts and normalized against total protein
BES1-GFP (Arabidopsis) = BES1-GFP (Arabidopsis) (UniProt Q9LN63); experiment: co-IP; BES1-GFP and RD26-MYC co-expressed in tobacco leaves; protein extract immunoprecipitated with anti-GFP antibody and protein A beads at 4 °C; lysis buffer with 75 mM NaCl, 0.05% SDS, 0.1% Triton X-100, pH 7.4; blotted with anti-BES1 and anti-MYC
BES1-YFPN (Arabidopsis) = BES1-YFPN (Arabidopsis) (UniProt Q9LN63); experiment: split reporter; BiFC; BES1-YFPN and RD26-YFPC co-expressed in Nicotiana benthamiana leaves; YFP seen by confocal microscopy 2 days after infiltration

B1: RD26-NLuc (protein, UniProt Q93VY3 1-297)
chain: MGVREKDPLAQLSLPPGFRFYPTDEELLVQYLCRKVAGYHFSLQVIGDIDLYKFDPWDLPSKALFGEKEWYFFSPRDRKYPNGSRPNRVAGSGYWKATGTDKIITADGRRVGIKKALVFYAGKAPKGTKTNWIMHEYRLIEHSRSHGSSKLDDWVLCRIYKKTSGSQRQAVTPVQACREEHSTNGSSSSSSSQLDDVLDSFPEIKDQSFNLPRMNSLRTILNGNFDWASLAGLNPIPELAPTNGLPSYGGYDAFRAAEGEAESGHVNRQQNSSGLTQSFGYSSSGFGVSGQTFEFRQ
binding (CLuc-BES1 (Arabidopsis)): binds

B2: RD26-MYC (protein, UniProt Q93VY3 1-297)
chain: MGVREKDPLAQLSLPPGFRFYPTDEELLVQYLCRKVAGYHFSLQVIGDIDLYKFDPWDLPSKALFGEKEWYFFSPRDRKYPNGSRPNRVAGSGYWKATGTDKIITADGRRVGIKKALVFYAGKAPKGTKTNWIMHEYRLIEHSRSHGSSKLDDWVLCRIYKKTSGSQRQAVTPVQACREEHSTNGSSSSSSSQLDDVLDSFPEIKDQSFNLPRMNSLRTILNGNFDWASLAGLNPIPELAPTNGLPSYGGYDAFRAAEGEAESGHVNRQQNSSGLTQSFGYSSSGFGVSGQTFEFRQ
binding (BES1-GFP (Arabidopsis)): binds

B3: RD26-YFPC (protein, UniProt Q93VY3 1-297)
chain: MGVREKDPLAQLSLPPGFRFYPTDEELLVQYLCRKVAGYHFSLQVIGDIDLYKFDPWDLPSKALFGEKEWYFFSPRDRKYPNGSRPNRVAGSGYWKATGTDKIITADGRRVGIKKALVFYAGKAPKGTKTNWIMHEYRLIEHSRSHGSSKLDDWVLCRIYKKTSGSQRQAVTPVQACREEHSTNGSSSSSSSQLDDVLDSFPEIKDQSFNLPRMNSLRTILNGNFDWASLAGLNPIPELAPTNGLPSYGGYDAFRAAEGEAESGHVNRQQNSSGLTQSFGYSSSGFGVSGQTFEFRQ
binding (BES1-YFPN (Arabidopsis)): binds
